{
  "sequences": {"note": "Protein sequences, listed by entry. Tags and fused reporters are not part of them.", "UniProt P35228, whole entry": "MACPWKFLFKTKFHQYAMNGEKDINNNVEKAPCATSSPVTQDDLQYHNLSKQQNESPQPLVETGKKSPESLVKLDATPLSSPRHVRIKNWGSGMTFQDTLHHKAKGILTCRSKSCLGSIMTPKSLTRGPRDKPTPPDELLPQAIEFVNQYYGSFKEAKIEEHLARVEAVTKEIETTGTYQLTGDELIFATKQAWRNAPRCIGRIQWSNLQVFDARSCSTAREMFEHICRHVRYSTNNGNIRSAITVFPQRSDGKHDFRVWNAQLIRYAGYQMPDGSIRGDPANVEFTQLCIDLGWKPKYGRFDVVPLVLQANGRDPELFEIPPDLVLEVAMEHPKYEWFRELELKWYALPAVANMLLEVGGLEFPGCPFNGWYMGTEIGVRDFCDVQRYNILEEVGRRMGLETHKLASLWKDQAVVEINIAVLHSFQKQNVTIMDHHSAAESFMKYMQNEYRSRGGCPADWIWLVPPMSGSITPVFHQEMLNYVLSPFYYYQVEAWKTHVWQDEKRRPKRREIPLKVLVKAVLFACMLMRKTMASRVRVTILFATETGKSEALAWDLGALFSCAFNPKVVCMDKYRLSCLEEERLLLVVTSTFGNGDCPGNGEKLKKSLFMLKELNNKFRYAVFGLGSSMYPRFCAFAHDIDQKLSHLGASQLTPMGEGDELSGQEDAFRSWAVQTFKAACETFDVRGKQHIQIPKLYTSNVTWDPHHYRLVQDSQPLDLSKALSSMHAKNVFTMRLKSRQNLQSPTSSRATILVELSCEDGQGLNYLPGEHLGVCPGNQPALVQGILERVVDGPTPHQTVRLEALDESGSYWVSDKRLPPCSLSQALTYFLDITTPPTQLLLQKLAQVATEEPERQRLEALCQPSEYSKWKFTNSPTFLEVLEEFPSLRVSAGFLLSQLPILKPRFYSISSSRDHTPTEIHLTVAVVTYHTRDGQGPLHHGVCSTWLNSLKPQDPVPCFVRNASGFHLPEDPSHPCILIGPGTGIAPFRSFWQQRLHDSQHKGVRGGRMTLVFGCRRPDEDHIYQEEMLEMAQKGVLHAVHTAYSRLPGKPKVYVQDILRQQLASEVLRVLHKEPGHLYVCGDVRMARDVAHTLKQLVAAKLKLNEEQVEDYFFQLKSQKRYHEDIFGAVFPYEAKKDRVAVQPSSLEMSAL"},
  "source": "ChEMBL document CHEMBL4400558",
  "about": "“Optimization of Blood-Brain Barrier Permeability with Potent and Selective Human Neuronal Nitric Oxide Synthase Inhibitors Having a 2-Aminopyridine Scaffold” (J Med Chem, 2019)",
  "molecular_target": "Nitric oxide synthase, inducible (Homo sapiens, UniProt P35228)",
  "data": [
    {"smiles": "Cc1cc(N)nc(CCc2cc(F)cc(CCCN(C)C)c2)c1", "values": [
      {"measurement": "Ki", "result": 3.5, "unit": "µM"}
    ]}
  ]
}
